# In patent US7056947B2 (Georgia Tech Research Corp., priority 2002, dated 2006):
# Test: general procedure: solution-phase peptide synthesis; EDC/HOBt; pentafluorophenol/DCC; mixed anhydride (IBCF/NMM)
# Details: coupling step
row,Substance,step yield
1,"Cbz-Asp(O-tBu)-Glu(O-tBu)-Val-AAsp(O-tBu)-(2S,3S)-EP-COOEt",yield 58%
2,"Cbz-Asp(O-tBu)-Glu(O-tBu)-Val-AAsp(O-tBu)-(2S,3S)-EP-CONHCH2Ph",yield 31%
3,"Cbz-Leu-Glu(O-tBu)-Thr-AAsp(O-tBu)-(2S,3S)-EP-CON(CH3)Bzl",yield 53%
4,"Cbz-Ile-Glu(O-tBu)-Thr-AAsp(O-tBu)-(2S,3S)-EP-CO—N(CH3)Bzl",yield 42%
5,"Cbz-Leu-Glu(O-tBu)-Thr-AAsp(O-tBu)-(2S,3S)-EP-CON(Bzl)2",yield 41%
6,"Cbz-Ile-Glu(O-tBu)-Thr-AAsp(O-tBu)-(2S,3S)-EP-COOCH2Ph",yield 38%
7,"PhPr-Val-Ala-AAsp(O-tBu)-(2S,3S)-EP-CO-Ala-NHBzl",yield 41%
8,"Cbz-Asp(O-tBu)-Glu(O-tBu)-Val-AAsp(O-tBu)-(2R,3R)-EP-COOEt",yield 57%
9,"Cbz-Ile-Glu(O-tBu)-Thr-AAsp(O-tBu)-(2S,3S)-EP-CO—N(BzI)2",yield 37%
10,"Cbz-Asp(O-tBu)-Glu(O-tBu)-Val-AAsp(O-tBu)-(2S,3S)-EP-COOCH2Ph",yield 23%
11,"Cbz-Ile-Glu(O-tBu)-Thr-AAsp(O-tBu)-(2R,3R)-EP-COOCH2Ph",yield 37%
12,"Cbz-Ile-Glu(O-tBu)-Thr-AAsp(O-tBu)-(2R,3R)-EP-COOEt",yield 43%
13,"Cbz-Leu-Glu(O-tBu)-Thr-AAsp(O-tBu)-(2S,3S)-EP-COOEt",yield 44%
14,"PhPr-Val-Ala-AAsp(O-tBu)-(2S,3S)-EP-CO-Tyr-NH2",yield 50%
15,"Cbz-Ile-Glu(O-tBu)-Thr-AAsp(O-tBu)-(2S,3S)-EP-CO-Ala-NHBzl",yield 36%
16,"Cbz-Glu(O-tBu)-Val-AAsp(O-tBu)-(2R,3R)-EP-CO-Phe-NH2",yield 32%
17,"PhPr-Val-Ala-AAsp(O-tBu)-(2R,3R)-EP-CO-Phe-NH2",yield 56%
18,"Cbz-Leu-Glu(O-tBu)-Thr-AAsp(O-tBu)-(2S,3S)-EP-COOCH2Ph",yield 44%
19,"Cbz-Leu-Glu(O-tBu)-Thr-AAsp(O-tBu)-(2S,3S)-EP-CONHCH2CH2Ph",yield 52%
20,"PhPr-Val-Ala-AAsp(O-tBu)-(2S,3S)-EP-CO-Phe-NH2",yield 39%
21,"PhPr-Val-Ala-AAsp(O-tBu)-(2R,3R)-EP-CO-Ala-NHBzl",yield 50%
22,"Cbz-Ile-Glu(O-tBu)-Thr-AAsp(O-tBu)-(2R,3R)-EP-CONHCH2Ph",yield 47%
23,"PhPr-Val-Ala-AAsp(O-tBu)-(2R,3R)-EP-CO-Leu-NH2",yield 64%
24,"PhPr-Val-Ala-AAsp(O-tBu)-(2S,3S)-EP-CO-Leu-NH2",yield 23%
25,"Cbz-Leu-Glu(O-tBu)-Thr-AAsp(O-tBu)-(2R,3R)-EP-COOEt",yield 16%
26,"Cbz-Ile-Glu(O-tBu)-Thr-AAsp(O-tBu)-(2S,3S)-EP-COOEt",yield 37%
27,"Cbz-Leu-Glu(O-tBu)-Thr-AAsp(O-tBu)-(2S,3S)-EP-CO-Ala-NHBzl",yield 42%
28,"Cbz-Ala-Ala-AAsn-(2R,3R)-EP-CO-Ala-NHBzl",yield 4%
